Assay [1] has as its target T1, Flag tagged full length Obi1 protein (human) (UniProt Q5W0B1).
T1 sequence: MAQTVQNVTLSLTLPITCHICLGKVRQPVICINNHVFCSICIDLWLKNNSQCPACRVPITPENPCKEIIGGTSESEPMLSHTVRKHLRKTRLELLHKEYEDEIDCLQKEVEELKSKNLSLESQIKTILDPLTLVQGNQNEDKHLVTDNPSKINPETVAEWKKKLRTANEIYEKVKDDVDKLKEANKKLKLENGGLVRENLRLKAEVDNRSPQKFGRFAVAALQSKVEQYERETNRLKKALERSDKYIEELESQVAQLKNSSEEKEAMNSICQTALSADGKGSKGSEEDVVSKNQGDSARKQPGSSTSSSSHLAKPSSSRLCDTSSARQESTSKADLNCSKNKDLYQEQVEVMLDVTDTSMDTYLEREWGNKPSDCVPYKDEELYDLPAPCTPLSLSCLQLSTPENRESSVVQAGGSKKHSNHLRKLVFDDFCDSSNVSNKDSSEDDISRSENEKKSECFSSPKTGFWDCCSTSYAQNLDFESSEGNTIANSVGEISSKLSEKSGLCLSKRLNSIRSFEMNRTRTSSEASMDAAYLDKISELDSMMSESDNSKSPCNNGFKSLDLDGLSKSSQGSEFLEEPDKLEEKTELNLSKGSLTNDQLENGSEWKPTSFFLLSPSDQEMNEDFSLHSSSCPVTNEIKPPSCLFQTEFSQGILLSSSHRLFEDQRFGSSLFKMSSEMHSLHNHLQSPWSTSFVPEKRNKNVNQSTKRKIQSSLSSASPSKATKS
In words: anti-Flag co-immunoprecipitation from transfected U2OS cells, western blot with anti-Myc.

Assay [2] has as its target T2, Flag tagged ORC1 (N-terminal Flag, pCS2-Flag) (human) (UniProt Q13415).
T2 sequence: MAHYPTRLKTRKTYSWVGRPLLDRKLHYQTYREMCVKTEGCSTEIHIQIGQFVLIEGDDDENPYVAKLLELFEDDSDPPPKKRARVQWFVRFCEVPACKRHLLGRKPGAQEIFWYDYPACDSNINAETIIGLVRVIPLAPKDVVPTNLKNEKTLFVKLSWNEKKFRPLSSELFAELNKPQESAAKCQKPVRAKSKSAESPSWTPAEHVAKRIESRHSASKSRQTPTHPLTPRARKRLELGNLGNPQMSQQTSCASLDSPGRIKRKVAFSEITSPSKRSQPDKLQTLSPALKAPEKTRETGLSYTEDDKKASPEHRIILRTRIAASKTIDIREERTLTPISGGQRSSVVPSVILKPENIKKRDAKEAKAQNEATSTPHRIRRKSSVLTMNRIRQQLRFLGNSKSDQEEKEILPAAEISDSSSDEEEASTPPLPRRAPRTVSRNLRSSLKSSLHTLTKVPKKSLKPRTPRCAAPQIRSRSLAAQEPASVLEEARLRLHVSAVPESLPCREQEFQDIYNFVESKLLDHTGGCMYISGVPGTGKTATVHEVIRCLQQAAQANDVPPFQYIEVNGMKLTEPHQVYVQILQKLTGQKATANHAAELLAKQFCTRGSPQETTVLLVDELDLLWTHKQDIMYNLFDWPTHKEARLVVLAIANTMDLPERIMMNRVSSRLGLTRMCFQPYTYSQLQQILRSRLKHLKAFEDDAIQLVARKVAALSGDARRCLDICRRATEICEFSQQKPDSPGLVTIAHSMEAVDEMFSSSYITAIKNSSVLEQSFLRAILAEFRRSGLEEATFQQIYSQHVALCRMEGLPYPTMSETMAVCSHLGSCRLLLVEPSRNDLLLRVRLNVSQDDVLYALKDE
Briefly: anti-Flag co-immunoprecipitation from transfected U2OS cells, western blot with anti-Myc (FIG. 4B).

The target of assay [3] is T2, Flag tagged ORC1 (N-terminal Flag, pCS2-Flag) (human). Briefly: anti-Flag co-immunoprecipitation from transfected U2OS cells, western blot with anti-Myc. (In general: A western blot detects proteins with antibodies after separation by electrophoresis.)

No constants are given. Whether binding was seen depends on the method and setting. In cells and extracts the contact can be indirect. Some entries that bind do so weakly or less than the wild type. Where a sequence is shown, tags or fusion partners need not be part of it.

B1: Myc tagged Obi1 ΔRING (protein, not shown: small tags and cut ends)
chain: ACRVPITPENPCKEIIGGTSESEPMLSHTVRKHLRKTRLELLHKEYEDEIDCLQKEVEELKSKNLSLESQIKTILDPLTLVQGNQNEDKHLVTDNPSKINPETVAEWKKKLRTANEIYEKVKDDVDKLKEANKKLKLENGGLVRENLRLKAEVDNRSPQKFGRFAVAALQSKVEQYERETNRLKKALERSDKYIEELESQVAQLKNSSEEKEAMNSICQTALSADGKGSKGSEEDVVSKNQGDSARKQPGSSTSSSSHLAKPSSSRLCDTSSARQESTSKADLNCSKNKDLYQEQVEVMLDVTDTSMDTYLEREWGNKPSDCVPYKDEELYDLPAPCTPLSLSCLQLSTPENRESSVVQAGGSKKHSNHLRKLVFDDFCDSSNVSNKDSSEDDISRSENEKKSECFSSPKTGFWDCCSTSYAQNLDFESSEGNTIANSVGEISSKLSEKSGLCLSKRLNSIRSFEMNRTRTSSEASMDAAYLDKISELDSMMSESDNSKSPCNNGFKSLDLDGLSKSSQGSEFLEEPDKLEEKTELNLSKGSLTNDQLENGSEWKPTSFFLLSPSDQEMNEDFSLHSSSCPVTNEIKPPSCLFQTEFSQGILLSSSHRLFEDQRFGSSLFKMSSEMHSLHNHLQSPWSTSFVPEKRNKNVNQSTKRKIQSSLSSASPSKATKS
For the molecule B1, the binding result in assay [1] was “binds”.

B2: human Myc6-tagged Obi1 WT (enzyme, not shown: small tags and cut ends)
chain: T1 sequence
On to B2, for which the binding entry in assay [2], in assay [1] and in assay [3] was “binds” throughout.

B3: Myc tagged Obi1 ΔCTD/OBD (protein, not shown: small tags and cut ends)
chain: MAQTVQNVTLSLTLPITCHICLGKVRQPVICINNHVFCSICIDLWLKNNSQCPACRVPITPENPCKEIIGGTSESEPMLSHTVRKHLRKTRLELLHKEYEDEIDCLQKEVEELKSKNLSLESQIKTILDPLTLVQGNQNEDKHLVTDNPSKINPETVAEWKKKLRTANEIYEKVKDDVDKLKEANKKLKLENGGLVRENLRLKAEVDNRSPQKFGRFAVAALQSKVEQYERETNRLKKALERSDKYIEELESQVAQLKNSSEEKEAMNSICQTALSADGK
For B3, the binding entry in assay [1] is listed as “binds”.

B4: Myc tagged Obi1 CC (protein, not shown: small tags and cut ends)
chain: ACRVPITPENPCKEIIGGTSESEPMLSHTVRKHLRKTRLELLHKEYEDEIDCLQKEVEELKSKNLSLESQIKTILDPLTLVQGNQNEDKHLVTDNPSKINPETVAEWKKKLRTANEIYEKVKDDVDKLKEANKKLKLENGGLVRENLRLKAEVDNRSPQKFGRFAVAALQSKVEQYERETNRLKKALERSDKYIEELESQVAQLKNSSEEKEAMNSICQTALSADGK
Regarding B4, the binding result in assay [1] is given as “binds”.

Source of the values: US20160122742A1 (published 2016).
